Reference: publication doi:10.1101/2024.09.19.613927

Molecular target: mutant HTT (mHTT) of the zQ175 knock-in mouse (human | mouse)
Assay: co-IP

binding: binds
B1: DNA LIG IV, mouse (enzyme, UniProt Q8BTF7 1-911)
chain: MASSQTSQTVAAHVPFADLCSTLERIQKGKDRAEKIRHFKEFLDSWRKFHDALHKNRKDVTDSFYPAMRLILPQLERERMAYGIKETMLAKLYIELLNLPREGKDAQKLLNYRTPSGARTDAGDFAMIAYFVLKPRCLQKGSLTIQQVNELLDLVASNNSGKKKDLVKKSLLQLITQSSALEQKWLIRMIIKDLKLGISQQTIFSIFHNDAVELHNVTTDLEKVCRQLHDPSVGLSDISITLFSAFKPMLAAVADVERVEKDMKQQSFYIETKLDGERMQMHKDGALYRYFSRNGYNYTDQFGESPQEGSLTPFIHNAFGTDVQACILDGEMMAYNPTTQTFMQKGVKFDIKRMVEDSGLQTCYSVFDVLMVNKKKLGRETLRKRYEILSSTFTPIQGRIEIVQKTQAHTKKEVVDALNDAIDKREEGIMVKHPLSIYKPDKRGEGWLKIKPEYVSGLMDELDVLIVGGYWGKGSRGGMMSHFLCAVAETPPPGDRPSVFHTLCRVGSGYTMKELYDLGLKLAKYWKPFHKKSPPSSILCGTEKPEVYIEPQNSVIVQIKAAEIVPSDMYKTGSTLRFPRIEKIRDDKEWHECMTLGDLEQLRGKASGKLATKHLHVGDDDEPREKRRKPISKTKKAIRIIEHLKAPNLSNVNKVSNVFEDVEFCVMSGLDGYPKADLENRIAEFGGYIVQNPGPDTYCVIAGSENVRVKNIISSDKNDVVKPEWLLECFKTKTCVPWQPRFMIHMCPSTKQHFAREYDCYGDSYFVDTDLDQLKEVFLGIKPSEQQTPEEMAPVIADLECRYSWDHSPLSMFRHYTIYLDLYAVINDLSSRIEATRLGITALELRFHGAKVVSCLSEGVSHVIIGEDQRRVTDFKIFRRMLKKKFKILQESWVSDSVDKGELQEENQYLL

These are yes or no findings as the source states them, for the method shown. Binding seen in cells or lysates may run through a third protein. Binding calls can cover weak binding; strength is not graded here.
